# Results taken from doi:10.1101/2020.03.10.983148.
# The chains behind the UniProt entries cited, without tags or fusion partners.
# UniProt Q8NFU7: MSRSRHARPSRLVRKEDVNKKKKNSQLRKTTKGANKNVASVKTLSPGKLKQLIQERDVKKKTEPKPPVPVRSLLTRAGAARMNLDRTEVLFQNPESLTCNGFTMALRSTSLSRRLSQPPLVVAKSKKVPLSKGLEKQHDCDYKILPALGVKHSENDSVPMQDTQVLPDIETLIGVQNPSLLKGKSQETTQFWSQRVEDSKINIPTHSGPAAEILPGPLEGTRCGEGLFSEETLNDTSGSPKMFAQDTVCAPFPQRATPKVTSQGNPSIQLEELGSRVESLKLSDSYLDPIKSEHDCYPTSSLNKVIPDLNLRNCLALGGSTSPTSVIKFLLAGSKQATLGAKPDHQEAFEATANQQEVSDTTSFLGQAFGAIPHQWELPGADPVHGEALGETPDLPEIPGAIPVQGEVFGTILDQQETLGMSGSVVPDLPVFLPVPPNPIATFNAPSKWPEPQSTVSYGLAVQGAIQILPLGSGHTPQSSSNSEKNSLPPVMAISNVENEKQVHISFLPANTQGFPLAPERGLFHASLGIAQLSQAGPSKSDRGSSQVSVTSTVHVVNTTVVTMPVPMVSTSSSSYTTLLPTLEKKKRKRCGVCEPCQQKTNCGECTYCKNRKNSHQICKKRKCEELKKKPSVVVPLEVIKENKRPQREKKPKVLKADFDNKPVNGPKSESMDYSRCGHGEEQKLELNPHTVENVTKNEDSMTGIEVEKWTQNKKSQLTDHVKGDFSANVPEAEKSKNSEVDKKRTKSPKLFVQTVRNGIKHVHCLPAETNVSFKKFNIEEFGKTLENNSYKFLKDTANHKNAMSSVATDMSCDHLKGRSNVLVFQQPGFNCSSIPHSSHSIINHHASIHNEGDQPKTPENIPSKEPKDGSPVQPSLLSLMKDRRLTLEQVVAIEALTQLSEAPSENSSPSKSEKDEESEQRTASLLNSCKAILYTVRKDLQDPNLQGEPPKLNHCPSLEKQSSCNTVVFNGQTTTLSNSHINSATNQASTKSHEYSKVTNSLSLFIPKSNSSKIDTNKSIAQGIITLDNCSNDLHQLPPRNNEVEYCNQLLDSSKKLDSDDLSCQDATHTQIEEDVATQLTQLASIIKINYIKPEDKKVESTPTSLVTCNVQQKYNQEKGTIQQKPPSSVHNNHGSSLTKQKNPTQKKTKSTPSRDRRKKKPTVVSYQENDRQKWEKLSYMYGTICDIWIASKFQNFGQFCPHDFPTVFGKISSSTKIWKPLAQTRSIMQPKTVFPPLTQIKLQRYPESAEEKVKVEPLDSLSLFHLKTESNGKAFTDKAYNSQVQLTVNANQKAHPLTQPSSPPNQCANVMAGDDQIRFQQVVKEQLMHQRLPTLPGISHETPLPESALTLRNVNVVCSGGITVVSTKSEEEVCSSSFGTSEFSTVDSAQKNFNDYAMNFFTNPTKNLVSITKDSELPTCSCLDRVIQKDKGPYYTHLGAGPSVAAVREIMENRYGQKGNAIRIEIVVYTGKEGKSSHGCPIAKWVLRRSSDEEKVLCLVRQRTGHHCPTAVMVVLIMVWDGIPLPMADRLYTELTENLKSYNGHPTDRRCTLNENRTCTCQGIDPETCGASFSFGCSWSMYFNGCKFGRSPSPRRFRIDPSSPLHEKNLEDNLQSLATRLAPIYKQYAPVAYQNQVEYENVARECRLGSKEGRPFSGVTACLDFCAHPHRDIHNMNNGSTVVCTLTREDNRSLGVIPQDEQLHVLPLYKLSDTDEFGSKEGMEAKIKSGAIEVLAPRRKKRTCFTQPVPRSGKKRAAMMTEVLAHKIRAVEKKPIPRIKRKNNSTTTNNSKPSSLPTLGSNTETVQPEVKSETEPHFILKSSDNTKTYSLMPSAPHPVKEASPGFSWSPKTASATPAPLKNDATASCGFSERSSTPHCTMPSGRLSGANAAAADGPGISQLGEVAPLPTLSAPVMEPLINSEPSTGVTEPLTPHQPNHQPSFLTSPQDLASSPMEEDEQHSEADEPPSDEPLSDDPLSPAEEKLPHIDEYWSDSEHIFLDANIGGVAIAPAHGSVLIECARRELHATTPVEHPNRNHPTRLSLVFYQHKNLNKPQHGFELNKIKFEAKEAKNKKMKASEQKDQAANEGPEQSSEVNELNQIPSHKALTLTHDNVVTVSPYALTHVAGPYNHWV
# UniProt Q3URK3: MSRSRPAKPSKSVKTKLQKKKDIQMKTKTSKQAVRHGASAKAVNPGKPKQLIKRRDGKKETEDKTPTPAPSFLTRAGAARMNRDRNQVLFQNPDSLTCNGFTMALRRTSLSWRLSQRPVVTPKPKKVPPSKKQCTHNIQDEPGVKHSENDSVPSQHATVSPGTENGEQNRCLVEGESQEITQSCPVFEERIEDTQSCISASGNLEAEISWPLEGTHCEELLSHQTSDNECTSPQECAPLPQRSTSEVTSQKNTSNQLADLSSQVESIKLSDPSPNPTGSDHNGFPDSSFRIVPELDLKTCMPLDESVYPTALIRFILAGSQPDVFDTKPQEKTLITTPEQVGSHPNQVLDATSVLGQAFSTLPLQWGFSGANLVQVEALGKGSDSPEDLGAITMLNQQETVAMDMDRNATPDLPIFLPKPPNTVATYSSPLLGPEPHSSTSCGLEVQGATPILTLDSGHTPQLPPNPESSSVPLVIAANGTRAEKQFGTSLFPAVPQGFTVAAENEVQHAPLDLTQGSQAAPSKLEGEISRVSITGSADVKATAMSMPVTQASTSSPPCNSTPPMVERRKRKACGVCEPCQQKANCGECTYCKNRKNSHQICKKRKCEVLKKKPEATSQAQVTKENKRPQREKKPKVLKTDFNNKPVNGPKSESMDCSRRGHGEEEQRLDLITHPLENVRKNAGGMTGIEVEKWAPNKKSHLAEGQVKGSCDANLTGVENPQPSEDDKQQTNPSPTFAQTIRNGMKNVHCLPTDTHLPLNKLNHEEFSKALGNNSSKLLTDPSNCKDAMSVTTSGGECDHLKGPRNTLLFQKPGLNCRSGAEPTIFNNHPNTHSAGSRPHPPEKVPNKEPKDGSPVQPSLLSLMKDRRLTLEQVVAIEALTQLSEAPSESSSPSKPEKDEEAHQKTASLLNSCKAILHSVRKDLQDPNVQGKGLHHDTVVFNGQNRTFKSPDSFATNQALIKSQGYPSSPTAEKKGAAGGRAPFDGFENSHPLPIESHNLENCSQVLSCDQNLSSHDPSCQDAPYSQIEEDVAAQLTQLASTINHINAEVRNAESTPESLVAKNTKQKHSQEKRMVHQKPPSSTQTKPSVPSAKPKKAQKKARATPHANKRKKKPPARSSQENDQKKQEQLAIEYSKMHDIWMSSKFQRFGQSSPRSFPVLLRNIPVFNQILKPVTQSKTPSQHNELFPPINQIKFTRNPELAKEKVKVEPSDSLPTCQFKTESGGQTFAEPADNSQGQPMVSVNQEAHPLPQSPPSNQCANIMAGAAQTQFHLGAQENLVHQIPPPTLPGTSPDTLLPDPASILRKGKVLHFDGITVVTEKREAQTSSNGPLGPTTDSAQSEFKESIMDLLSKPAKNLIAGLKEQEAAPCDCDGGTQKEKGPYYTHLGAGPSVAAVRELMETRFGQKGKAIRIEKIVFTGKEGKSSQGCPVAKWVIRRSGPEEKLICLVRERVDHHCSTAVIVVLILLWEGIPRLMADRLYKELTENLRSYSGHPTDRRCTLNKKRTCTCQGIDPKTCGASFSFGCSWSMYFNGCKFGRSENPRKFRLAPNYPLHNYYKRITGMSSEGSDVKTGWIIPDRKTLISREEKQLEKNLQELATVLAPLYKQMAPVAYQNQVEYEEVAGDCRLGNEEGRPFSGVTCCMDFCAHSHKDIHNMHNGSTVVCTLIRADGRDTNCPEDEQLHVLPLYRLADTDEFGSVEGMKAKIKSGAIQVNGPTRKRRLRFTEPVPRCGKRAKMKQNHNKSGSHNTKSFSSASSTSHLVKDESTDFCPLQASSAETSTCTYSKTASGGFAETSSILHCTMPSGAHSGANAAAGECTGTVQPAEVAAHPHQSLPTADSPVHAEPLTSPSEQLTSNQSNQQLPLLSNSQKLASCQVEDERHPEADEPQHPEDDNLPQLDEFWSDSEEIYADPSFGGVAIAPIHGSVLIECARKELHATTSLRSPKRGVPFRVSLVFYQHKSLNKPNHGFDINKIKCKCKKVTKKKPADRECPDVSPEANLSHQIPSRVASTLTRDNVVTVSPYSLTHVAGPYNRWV
# Results are given in words; binding and its absence hold for the method and conditions named. In cells and extracts the contact can be indirect. Some results given as binding are weak or reduced against the parent protein; the word gives no strength. For some assays here: Tags and fused reporters may be left off the sequences shown.
# T1: full-length Halo-tagged human TET3 (human), O43151
# T1 chain: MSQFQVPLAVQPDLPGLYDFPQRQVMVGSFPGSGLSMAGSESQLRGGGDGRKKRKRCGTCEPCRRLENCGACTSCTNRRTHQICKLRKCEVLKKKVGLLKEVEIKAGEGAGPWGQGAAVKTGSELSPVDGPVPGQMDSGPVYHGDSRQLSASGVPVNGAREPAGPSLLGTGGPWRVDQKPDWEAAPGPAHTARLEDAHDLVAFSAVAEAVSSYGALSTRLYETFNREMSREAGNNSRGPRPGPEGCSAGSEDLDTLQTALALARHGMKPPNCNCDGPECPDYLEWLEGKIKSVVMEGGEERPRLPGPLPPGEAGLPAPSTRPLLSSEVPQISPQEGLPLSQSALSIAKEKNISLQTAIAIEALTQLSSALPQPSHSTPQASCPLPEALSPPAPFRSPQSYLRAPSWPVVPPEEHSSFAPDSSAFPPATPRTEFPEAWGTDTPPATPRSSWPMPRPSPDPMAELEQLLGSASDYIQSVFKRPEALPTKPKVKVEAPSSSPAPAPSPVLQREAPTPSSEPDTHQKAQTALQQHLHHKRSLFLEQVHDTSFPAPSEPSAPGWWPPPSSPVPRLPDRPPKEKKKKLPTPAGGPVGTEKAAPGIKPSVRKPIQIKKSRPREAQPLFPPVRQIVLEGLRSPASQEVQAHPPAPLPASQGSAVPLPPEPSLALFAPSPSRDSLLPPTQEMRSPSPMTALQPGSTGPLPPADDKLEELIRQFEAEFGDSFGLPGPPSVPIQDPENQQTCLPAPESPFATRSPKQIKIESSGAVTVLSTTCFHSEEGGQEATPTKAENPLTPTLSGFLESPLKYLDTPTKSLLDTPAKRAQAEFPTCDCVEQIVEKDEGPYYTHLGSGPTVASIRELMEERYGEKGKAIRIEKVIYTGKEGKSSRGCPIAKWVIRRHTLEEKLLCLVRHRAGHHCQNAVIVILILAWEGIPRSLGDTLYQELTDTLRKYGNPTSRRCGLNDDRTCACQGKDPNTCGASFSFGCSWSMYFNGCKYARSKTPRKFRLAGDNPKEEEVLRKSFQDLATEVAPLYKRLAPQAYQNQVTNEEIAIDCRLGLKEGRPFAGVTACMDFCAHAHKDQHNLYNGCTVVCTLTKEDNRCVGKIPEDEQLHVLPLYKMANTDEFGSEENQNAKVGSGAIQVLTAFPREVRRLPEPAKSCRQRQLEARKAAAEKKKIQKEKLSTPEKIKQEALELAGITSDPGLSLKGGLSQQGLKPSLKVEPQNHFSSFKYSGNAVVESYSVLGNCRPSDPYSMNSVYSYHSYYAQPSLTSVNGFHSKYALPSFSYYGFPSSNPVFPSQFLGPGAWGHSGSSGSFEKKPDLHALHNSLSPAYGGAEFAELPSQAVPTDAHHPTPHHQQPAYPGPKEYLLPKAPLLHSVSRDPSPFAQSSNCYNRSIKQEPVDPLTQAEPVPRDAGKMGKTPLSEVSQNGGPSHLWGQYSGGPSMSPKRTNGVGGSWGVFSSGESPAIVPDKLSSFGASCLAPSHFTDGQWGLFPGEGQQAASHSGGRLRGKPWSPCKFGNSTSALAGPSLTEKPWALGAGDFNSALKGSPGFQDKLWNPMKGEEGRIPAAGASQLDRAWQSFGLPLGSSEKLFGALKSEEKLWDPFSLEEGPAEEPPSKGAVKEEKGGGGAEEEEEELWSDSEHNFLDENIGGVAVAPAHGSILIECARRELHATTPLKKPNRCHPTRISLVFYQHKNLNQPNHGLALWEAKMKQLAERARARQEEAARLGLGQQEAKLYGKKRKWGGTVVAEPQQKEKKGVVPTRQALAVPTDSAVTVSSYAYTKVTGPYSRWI
# Columns and labels:
# [1] = target: full-length Halo-tagged human TET2 (human) (UniProt Q6N021); assay: pull-down
# [2] = target: full-length Halo-tagged human TET1 (human) (UniProt Q8NFU7); assay: pull-down
# [3] = target: T1, full-length Halo-tagged human TET3 …; assay: pull-down; settings: remark: other sources report otherwise
# [4] = target: Tet1, endogenous in mouse embryonic stem cells (mouse (endogenous in ES cells)) (UniProt Q3URK3); assay: co-IP
# [5] = target: Tet2, endogenous in mouse embryonic stem cells (mouse (endogenous in ES cells)) (UniProt Q4JK59); assay: co-IP
binder,measurement,setting,value
"lymphoid-specific helicase (LSH), endogenous in HEK293T cells (protein, UniProt Q9NRZ9 1-838) MPAERPAGSGGSEAPAMVEQLDTAVITPAMLEEEEQLEAAGLERERKMLEKARMSWDRESTEIRYRRLQHLLEKSNIYSKFLLTKMEQQQLEEQKKKEKLERKKESLKVKKGKNSIDASEEKPVMRKKRGREDESYNISEVMSKEEILSVAKKNKKENEDENSSSTNLCVEDLQKNKDSNSIIKDRLSETVRQNTKFFFDPVRKCNGQPVPFQQPKHFTGGVMRWYQVEGMEWLRMLWENGINGILADEMGLGKTVQCIATIALMIQRGVPGPFLVCGPLSTLPNWMAEFKRFTPDIPTMLYHGTQEERQKLVRNIYKRKGTLQIHPVVITSFEIAMRDRNALQHCYWKYLIVDEGHRIKNMKCRLIRELKRFNADNKLLLTGTPLQNNLSELWSLLNFLLPDVFDDLKSFESWFDITSLSETAEDIIAKEREQNVLHMLHQILTPFLLRRLKSDVALEVPPKREVVVYAPLSKKQEIFYTAIVNRTIANMFGSSEKETIELSPTGRPKRRTRKSINYSKIDDFPNELEKLISQIQPEVDRERAVVEVNIPVESEVNLKLQNIMMLLRKCCNHPYLIEYPIDPVTQEFKIDEELVTNSGKFLILDRMLPELKKRGHKVLLFSQMTSMLDILMDYCHLRDFNFSRLDGSMSYSEREKNMHSFNTDPEVFIFLVSTRAGGLGINLTAADTVIIYDSDWNPQSDLQAQDRCHRIGQTKPVVVYRLVTANTIDQKIVERAAAKRKLEKLIIHKNHFKGGQSGLNLSKNFLDPKELMELLKSRDYEREIKGSREKVISDKDLELLLDRSDLIDQMNASGPIKEKMGIFKILENSEDSSPECLF",binding,[1],binds
same,binding,[2],binds
"lymphoid-specific helicase (LSH), endogenous in HEK293T cells, Q9NRZ9 1-838 (protein) MPAERPAGSGGSEAPAMVEQLDTAVITPAMLEEEEQLEAAGLERERKMLEKARMSWDRESTEIRYRRLQHLLEKSNIYSKFLLTKMEQQQLEEQKKKEKLERKKESLKVKKGKNSIDASEEKPVMRKKRGREDESYNISEVMSKEEILSVAKKNKKENEDENSSSTNLCVEDLQKNKDSNSIIKDRLSETVRQNTKFFFDPVRKCNGQPVPFQQPKHFTGGVMRWYQVEGMEWLRMLWENGINGILADEMGLGKTVQCIATIALMIQRGVPGPFLVCGPLSTLPNWMAEFKRFTPDIPTMLYHGTQEERQKLVRNIYKRKGTLQIHPVVITSFEIAMRDRNALQHCYWKYLIVDEGHRIKNMKCRLIRELKRFNADNKLLLTGTPLQNNLSELWSLLNFLLPDVFDDLKSFESWFDITSLSETAEDIIAKEREQNVLHMLHQILTPFLLRRLKSDVALEVPPKREVVVYAPLSKKQEIFYTAIVNRTIANMFGSSEKETIELSPTGRPKRRTRKSINYSKIDDFPNELEKLISQIQPEVDRERAVVEVNIPVESEVNLKLQNIMMLLRKCCNHPYLIEYPIDPVTQEFKIDEELVTNSGKFLILDRMLPELKKRGHKVLLFSQMTSMLDILMDYCHLRDFNFSRLDGSMSYSEREKNMHSFNTDPEVFIFLVSTRAGGLGINLTAADTVIIYDSDWNPQSDLQAQDRCHRIGQTKPVVVYRLVTANTIDQKIVERAAAKRKLEKLIIHKNHFKGGQSGLNLSKNFLDPKELMELLKSRDYEREIKGSREKVISDKDLELLLDRSDLIDQMNASGPIKEKMGIFKILENSEDSSPECLF",binding,[3],binds
"Lsh, endogenous in mouse embryonic stem cells (protein, UniProt Q60848 1-821) MAEQTEPAVITPAMLEEEEQLEAAGLEKERKMLEEAQKSWDRESTEIRYRRLQHLLEKSNIYSKFLLTKMEQQQLEEQKKKEKLEKKKRSLKLTEGKSLVDGNGEKPVMKKKRGREDESYNISEVMSKEEILSVAKKHKDNEDESSSTTSLCVEDIQKNKDSNSMIKDRLSQTVRQNSKFFFDPVRKCNGQPVPFQQPKHFTGGVMRWYQVEGMEWLRMLWENGINGILADEMGLGKTVQCIATIALMIQRGVPGPFLVCGPLSTLPNWMAEFKRFTPEIPTLLYHGTREDRRKLVKNIHKRQGTLQIHPVVVTSFEIAMRDQNALQHCYWKYLIVDEGHRIKNMKCRLIRELKRFNADNKLLLTGTPLQNNLSELWSLLNFLLPDVFDDLKSFESWFDITSLSETAEDIIAKEREQNVLHMLHQILTPFLLRRLKSDVALEVPPKREVVVYAPLCNKQEIFYTAIVNRTIANMFGSCEKETVELSPTGRPKRRSRKSINYSELDQFPSELEKLISQIQPEVNRERTVVEGNIPIESEVNLKLRNIMMLLRKCCNHPYMIEYPIDPVTQEFKIDEELVTNSGKFLILDRMLPELKKRGHKVLVFSQMTSMLDILMDYCHLRNFIFSRLDGSMSYSEREKNIYSFNTDPDVFLFLVSTRAGGLGINLTAADTVIIYDSDWNPQSDLQAQDRCHRIGQTKPVVVYRLVTANTIDQKIVERAAAKRKLEKLIIHKNHFKGGQSGLSQSKNFLDAKELMELLKSRDYEREVKGSREKVISDEDLELLLDRSDLIDQMKASRPIKGKTGIFKILENSEDSSAECLF",binding,[4],binds
same,binding,[5],binds
